Source: ChEMBL document CHEMBL3988442, “University of Dundee, Small-Polar-MMV Screening Library” (2021).

Values are the deposited “Percent Effect”, in %.
The controls that fix the scale are not given in the record; negative values are as filed.
The compounds are a random part of those screened.
Two or more numbers in one place are separate tests of the same structure; such repeats can differ widely.
A dash means the value is not listed here; it may have been measured.

T. brucei: 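Whole-parasite assay of Trypanosoma brucei over 72 hours; the read-out is not stated. Concentration: 30 µM. The record gives no direction; compounds that gave an IC50 in retests scored well above the rest, so higher reads as stronger inhibition. Values scatter widely below zero; nearly all retest evidence comes from the higher of the two concentrations used. Size under these conditions: about 64,000 compounds, about 940 of them at 50% or above in at least one test.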
Leishmania in macrophages: 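Cell assay of Leishmania donovani living inside macrophages; the read-out is not stated. Compounds at 30 µM. Direction is inferred from retests: higher values go with stronger inhibition. Of about 69,000 compounds tested this way, about 1,000 (1.5%) reached 50% or more in at least one test.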

structure | T. brucei | Leishmania in macrophages
CSCCCN1CCC(c2nnc(Cn3ccnc3)n2C2CC2)CC1 | -45.09 | -18.56
CN(C)C(=O)c1nn(C)c2c1CN(Cc1ccoc1)C2 | -14.89 | 8.149
Cc1ccc(C(=O)N2CCc3ncnc(-c4cnn(C)c4)c3CC2)o1 | -53.08 | -7.523
Clc1ccc(CN(CCN2CCOCC2)Cc2cccnc2)cc1Cl | - | 29.15
O=C(O)C(F)(F)F.O=C(c1cocn1)N1CCC2(CC1)COC(COCc1ccccn1)C2 (centres unmarked) | -213.6 | -4.581
CCC(=O)N1CCCCC1c1nc(CN(C)C(C)=O)cc(N(C)C)n1 (centres unmarked) | -9.959 | -30.13
Cc1ccnc(OCC(=O)N2CCN(c3ncccn3)CC2)n1 | -18.91 | 20.3
Cc1cc(C(=O)N2CCCC(c3ccc(C(=O)O)cc3)C2)c(C)o1 (centres unmarked) | -28.41 | -18.89
COc1ccc(C(C)=O)c(OCC(=O)NC(C)c2ccc(F)cc2)c1 (centres unmarked) | -15.74 | 44.87
CC[C@H](CO)NC(=O)c1coc(COc2ccccc2F)n1 | -6.998 | -0.307
O=C(O)C(F)(F)F.O=C(O)C(F)(F)F.O=C(O)C(F)(F)F.O=C(c1ccncc1)N1CCN(Cc2cccnc2)c2ncccc2C1 | -5.778 | 12.1
COc1cc(CNCc2c(C)nn(C)c2N(C)C)ccn1 | 3.131 | 21.89
Cc1c(CN2CCCC(O)C2)[nH]c2ccc(F)cc12 (centres unmarked) | 15.42 | -8.192
COCc1cnc2n1CCN(Cc1cccnc1)C2C.O=C(O)C(F)(F)F.O=C(O)C(F)(F)F (centres unmarked) | 10.61 | 6.251
Cc1cc(CCC(N)=O)cc(C2CCCN2Cc2cnc(C)nc2)n1 (centres unmarked) | -5.889 | 4.885
CCc1cnc(CN(C)C2CCN(CCS(C)(=O)=O)C2)o1 (centres unmarked) | 8.875 | -12.43
COc1ccc(CN2CCc3c(CNC(=O)CC#N)nn(C)c3C2)cc1.O=C(O)C(F)(F)F.O=C(O)C(F)(F)F | - | 10.36
O=C(O)C(F)(F)F.[H][C@@]12CCN(C(=O)c3cnoc3C)[C@@]1([H])CC(=O)N2Cc1cccnc1 | -47.58 | 0.1012
COCCN(C)C(=O)c1ccc(OC)cc1O | -42.53 | -17.55
N#Cc1cccc(OCCN2CCCC2C(=O)NCC(F)(F)F)c1 (centres unmarked) | -14.14 | -10.28
CCc1ocnc1C(=O)N1CCOC(c2nc(C(C)C)n[nH]2)C1 (centres unmarked) | -31.46 | -14.51
CCc1nc(C)c(C(=O)NCCN2CCC(C)CC2)s1 | -1.771 | 7.087
Cc1cnn(CC2CCCN2Cc2noc(C3CC3)n2)c1 (centres unmarked) | 8.131 | 10.06
Cn1cc(CCNC(=O)NC2CCN(Cc3ccccn3)CC2)cn1 | -23.64 | -60.59
Cc1nnc(NC(=O)C(C)n2ncc(Br)c2C)s1 (centres unmarked) | -10.95 | 6.546
O=C(NCCc1c[nH]cn1)c1ccccc1C1CCNC1 (centres unmarked) | -118.2 | 10.76
CC(CNCc1ccc(Cl)c(Cl)c1)Oc1ccccn1.Cl (centres unmarked) | -8.636 | 6.344
COc1ccc(CN2CC[C@@]3(C2)[C@H](O)CN(C)S3(=O)=O)cc1F | -21.5 | 3.485
CCc1ncnc(N2CCOCC2C2CC2)c1F (centres unmarked) | -18.11 | 10.53
Cc1noc(CS(=O)(=O)CC(=O)NC(C)c2ccccc2)n1 (centres unmarked) | 9.178 | 30.06
O=C(Cc1cccs1)N1CCCC(CNS(=O)(=O)Cc2ccccc2)C1 (centres unmarked) | 7.383 | -27.23
[H][C@@]12CC(=O)N(Cc3csc(C)n3)[C@@]1([H])CCN2Cc1cnn(C)c1 | 11.85 | 10.31
Cc1cc(CNc2ccc(-c3nc(C4CC4)no3)cn2)no1 | -9.781 | -8.406
CCOc1ccc(CN(CCOC)C(=O)c2ccncc2Cl)cc1 | -10.47 | -21.33
Cc1ccc2nc(C3CCCN(CC(C)C)C3)nc(O)c2c1 (centres unmarked) | - | 7.2
Cc1cc(C)c2nc(C3CC3)cc(C(=O)N3CCCC3C(N)=O)c2c1 (centres unmarked) | -42.02 | 15.68
COc1ccccc1CC1CCCN(C(=O)c2cn[nH]c2C)C1 (centres unmarked) | 11.15 | 30.36
O=C(O)C(F)(F)F.O=C(O)C(F)(F)F.[H][C@@]12CN(Cc3ccncc3)C[C@]1([H])C(=O)N(Cc1ccc(OC)cc1)C2 | -15.82 | 8.115
COc1ccccc1Oc1ncccc1CNC(=O)C1COC(=O)N1 (centres unmarked) | -37.43 | 27.04
COc1cccc(Cn2[nH]c(C)c3c(NC(=O)C(C)OC)nnc2-3)c1 (centres unmarked) | -10.7 | 4.783
Nc1cc(N2CCCC(CO)(Cc3ccccc3F)C2)nc(N)n1 (centres unmarked) | 15.39 | 94.26
Cc1ccc(O)c(C(=O)NCCS(=O)(=O)Cc2ccccc2)c1 | -3.144 | -1.289
CN(Cc1cccnc1)C1CC2(CCN(c3ccccn3)CC2)C1.O=C(O)C(F)(F)F.O=C(O)C(F)(F)F.O=C(O)C(F)(F)F | 54.5 | 32.83
O=C(NCc1nc2cc(F)ccc2[nH]1)c1ccc[nH]1 | -22.2 | 25.6
CN1CCOC(C(=O)Nc2ccc3c(c2)nc(C2CC2)n3C)C1 (centres unmarked) | 11.28 | 9.289
c1cncc(NCCCNC2CCSC2)c1 (centres unmarked) | -37.9 | -1.286
Cc1cccc(N(CC(=O)N2CCCCC2)Cc2nc(=O)[nH][nH]2)c1 | 13.12 | 15.92
O=C(Nc1cccc(N2CCN(CC3CC3)CC2)c1)C1CCOC1 (centres unmarked) | -8.99 | 5.871
N#Cc1ccc(CNCCc2cc(F)cc3c2OCOC3)cc1 | -98.95 | 9.533
COCCN(Cc1ccc(F)cc1Cl)C(=O)c1cc(C)no1 | -55.62 | 17.5
O=C(O)C(F)(F)F.[H][C@@]12CCCO[C@]1([H])[C@H](N(C)C)CN2C(=O)CCc1ccccc1 | -48.96 | 2.097
CN(C)Cc1cnc2n1CCN(C(=O)Cc1ccc(F)cc1)CC2.O=C(O)C(F)(F)F | -65.99 | 18.25
Cc1ccc(NCCNC(=O)c2cc(CC(C)C)n[nH]2)nn1 | 0.2503 | -12.63
C1Cc2nc(CCNc3nc(C4CC4)nc4c3CCNCC4)sc2C1 | - | 95.48
CCN(C)c1ncnc2c1CCN(C(=O)c1ccc(C)o1)CC2 | -47.18 | 12.5
CN(C)CCCN1CC2(CCN(C(=O)C3(C)CCCCO3)CC2)OC1=O (centres unmarked) | 8.578 | -15.27
Cc1cc(C)n(C2CCCN(C(=O)C3=NN(C)C(=O)CC3)C2)n1 (centres unmarked) | -1.656 | 23.61
COc1ccc(CN2CCC3(CC(=O)N(c4cccc(F)c4)C3)C2)cc1.O=C(O)C(F)(F)F (centres unmarked) | -233.1 | 23.6
CN1CCCN(c2nc(C3CCCC3)nc3c2cnn3C)CC1 | -51.81 | -4.336
CCN(CC(F)(F)F)C(=O)C1CCCN(Cc2ccccn2)C1 (centres unmarked) | -34.9 | 19.53
O=C1CC2(CCN(CC3CC3)CC2)CN1Cc1cc(F)cc(F)c1 | -10.22 | 59.82
O=C(O)C(F)(F)F.[H][C@@]12CCN(Cc3ccc(C)o3)C[C@@]1([H])O[C@@H](C(=O)N1CCCO1)C2 | -8.043 | 14.2 & 17.56
CCc1cc(C(=O)N2CCC(c3cc4ncccc4cn3)CC2)no1 | -35.77 | 15.31 & 8.896
O=C(Cc1cc2c(cc1Cl)OCCO2)N1CC[C@H](CO)[C@H](O)C1 | 1.686 | 18.44
CC(=O)N1CCC(c2nccnc2Oc2ccccc2)CC1 | -26.11 | -4.32
CNC(=O)c1cccc(NC(=O)CN2CCN(S(C)(=O)=O)CC2)c1 | -11.16 | 9.767
COc1cccc(C(=O)NS(=O)(=O)c2cncc(Br)c2)c1OC | -5.489 | 4.704
CCS(=O)(=O)N1CCc2c(nc(C3CCCN3)nc2NC)C1.Cl (centres unmarked) | - | -8.821
Cn1cnnc1-c1ccnc(NCc2ccc(Br)cc2)c1 | 11.29 | -1.127
[H][C@@]12CO[C@@H](CNC(=O)c3cnn(C)c3)[C@]1([H])CCN(S(C)(=O)=O)C2 | 13.49 | 25.36
CN(C)S(=O)(=O)N1CCC(c2ccnc(Nc3ccccn3)n2)C1 (centres unmarked) | -9.911 | 31.12
C=C(C)CN(CC)S(=O)(=O)c1cccc(F)c1C#N | 5.731 | 20.02
CCOCC(O)CN1CCN(C(=O)Cc2cccc(Cl)c2)CC1 (centres unmarked) | - | 13.34
CCCc1ccc(C(=O)N2CCc3c(nc(C)nc3N(C)C)C2)cc1 | -14.29 | 1.641
CC(C(=O)NCc1ccnc(N2CCN(C)CC2)c1)S(C)(=O)=O (centres unmarked) | -16.82 | 17.66
COCC1CCN(S(=O)(=O)NCC2COc3ccccc3C2)CC1 (centres unmarked) | -33.75 | 14.71
Cc1ccc(NC(=O)CNC(C)CN2CCOCC2)c(F)c1 (centres unmarked) | -13.75 | 34.31
Cc1cnc(CN(Cc2ccc(C#N)cc2F)C2CCN(C)C2)o1 (centres unmarked) | -34.7 | 19.56

Repeated from the top, 5 entries:

- CSCCCN1CCC(c2nnc(Cn3ccnc3)n2C2CC2)CC1 : T. brucei: -45.09%; Leishmania in macrophages: -18.56%
- CN(C)C(=O)c1nn(C)c2c1CN(Cc1ccoc1)C2 : T. brucei: -14.89%; Leishmania in macrophages: 8.149%
- Cc1ccc(C(=O)N2CCc3ncnc(-c4cnn(C)c4)c3CC2)o1 : T. brucei: -53.08%; Leishmania in macrophages: -7.523%
- Clc1ccc(CN(CCN2CCOCC2)Cc2cccnc2)cc1Cl : Leishmania in macrophages: 29.15%
- O=C(O)C(F)(F)F.O=C(c1cocn1)N1CCC2(CC1)COC(COCc1ccccn1)C2 (centres unmarked) : T. brucei: -213.6%; Leishmania in macrophages: -4.581%